The list shows only some results of the screen, not a fair sample: it is rich in T/C values a quarter to a half above the control, in often repeated tests (any T/C) and in doses without a T/C. Other doses and runs of a compound stand elsewhere. T/C is the treated group as % of the vehicle group. Some doses have a count of surviving animals in place of a T/C: the source files T/C as zero there, which appears to mark a toxic dose or a test without result, not a measured value. Some survivor counts are full or nearly so, which does not show that the dose was tolerated: the source hardly ever lists a survival T/C far under the control, and the zero likely stands for such cases as well. Counts of survivors are from the toxicity check (mostly the fifth day) where no day follows; animals may have died later. Schedules are NCI's codes, read here as Q, the interval in days (D) or hours (H), X, the number of doses. Some doses were run more than once; their values stand side by side, smallest first. Where survival is the endpoint, the PubChem record calls one and a half times the control and up active, and a quarter to a half above the control has no call in these data; cut-offs in other NCI protocols can differ. Some T/C values are followed by the survivors on the day toxicity was checked, most often the fifth; where none is given, no animal had died by that day.
Test system: L1210 leukemia ip in BDF1 mice, survival T/C
Assay: NCI In Vivo Anticancer Drug Screen. Data for tumor model L1210 Leukemia (intraperitoneal) in B6D2F1 (BDF1) mice
Conditions: T/C endpoint: median survival time, vehicle: saline, higher T/C = longer survival
[1] = dose: 1024.0 mg/kg/injection, schedule: Q01DX001 (oral)

For N[C@H](C(=O)O)[C@@H]1CC(Cl)=NO1, the T/C (dose: 0.39 mg/kg/injection, schedule: Q03HX016 (ip)) was 136 % of control, the T/C (dose: 0.5 mg/kg/injection, schedule: Q03HX024 (ip)) was 139 % of control and the T/C (dose: 0.78 mg/kg/injection, schedule: Q03HX008 (ip)) was 130 % of control. For the same compound, the T/C (dose: 1.0 mg/kg/injection, schedule: Q01DX009 (ip)) was 132 % of control, the T/C (dose: 1.0 mg/kg/injection, schedule: Q03HX016 (ip)) was 135 % of control and the T/C (dose: 1.56 mg/kg/injection, schedule: Q01DX009 (ip)) was 133 % of control. The T/C (dose: 1.56 mg/kg/injection, schedule: Q03HX008 (ip)) was 146 % of control [9 of 10 alive], the T/C (dose: 1.56 mg/kg/injection, schedule: Q03HX024 (ip)) was 148 % of control and the T/C (dose: 2.0 mg/kg/injection, schedule: Q01DX009 (ip)) was 139 % of control. The T/C (dose: 2.0 mg/kg/injection, schedule: Q01DX009 (sc)) was 133 % of control, the T/C (dose: 2.0 mg/kg/injection, schedule: Q03HX008 (ip)) was 129 % of control and the T/C (dose: 3.12 mg/kg/injection, schedule: Q03HX024 (ip)) was 148 % of control [9 of 10 alive]. For the same compound, the T/C (dose: 4.0 mg/kg/injection, schedule: Q01DX009 (sc)) was 138 % of control, the T/C (dose: 4.0 mg/kg/injection, schedule: Q03HX008 (ip)) was 130 % of control and the survivor count (dose: 6.25 mg/kg/injection, schedule: Q01DX009 (ip)) was 9 of 10. The T/C (dose: 6.25 mg/kg/injection, schedule: Q03HX008 (ip)) was 145 % of control, the T/C (dose: 6.25 mg/kg/injection, schedule: Q03HX024 (ip)) was 127 % of control and the T/C (dose: 6.25 mg/kg/injection, schedule: Q04DX003 (ip)) was 144 % of control. For the same compound, the T/C (dose: 8.0 mg/kg/injection, schedule: Q01DX009 (oral)) was 135 % of control, the T/C (dose: 8.0 mg/kg/injection, schedule: Q03HX008 (ip)) was 126 % of control [9 of 10 alive] and the T/C (dose: 8.0 mg/kg/injection, schedule: Q04DX003 (ip)) was 133 % of control. The survivor count (dose: 12.5 mg/kg/injection, schedule: Q01DX009 (ip)) was 9 of 10, the T/C (dose: 12.5 mg/kg/injection, schedule: Q03HX008 (ip)) was 126 % of control [6 of 9 alive] and the T/C (dose: 16.0 mg/kg/injection, schedule: Q01DX009 (ip)) was 135 % of control. The survivor count (dose: 16.0 mg/kg/injection, schedule: Q01DX009 (oral)) was 9 of 10, the T/C (dose: 16.0 mg/kg/injection, schedule: Q03HX008 (ip)) was 133 % of control and the survivor count (dose: 25.0 mg/kg/injection, schedule: Q03HX008 (ip)) was 8 of 10. The survivor count (dose: 25.0 mg/kg/injection, schedule: Q03HX016 (ip)) was 6 of 10, the T/C (dose: 25.0 mg/kg/injection, schedule: Q08DX002 (ip)) was 131 % of control and the survivor count (dose: 32.0 mg/kg/injection, schedule: Q01DX009 (oral)) was 9 of 10 and 10 of 10. The survivor count (dose: 32.0 mg/kg/injection, schedule: Q01DX009 (sc)) was 9 of 10, the T/C (dose: 32.0 mg/kg/injection, schedule: Q03HX008 (ip)) was 135 % of control and the T/C (dose: 32.0 mg/kg/injection, schedule: Q04DX003 (ip)) was 133 % of control. For the same compound, the survivor count (dose: 50.0 mg/kg/injection, schedule: Q03HX008 (ip)) was 4 of 10, the survivor count (dose: 64.0 mg/kg/injection, schedule: Q01DX009 (oral)) was 3 of 10 and 10 of 10 and the T/C (dose: 64.0 mg/kg/injection, schedule: Q04DX003 (ip)) was 142 % of control. The T/C (dose: 100.0 mg/kg/injection, schedule: Q01DX001 (ip)) was 137 % of control, the T/C (dose: 100.0 mg/kg/injection, schedule: Q04DX003 (ip)) was 135 % of control and the T/C (dose: 128.0 mg/kg/injection, schedule: Q01DX001 (oral)) was 129 % of control. The survivor count (dose: 128.0 mg/kg/injection, schedule: Q01DX009 (oral)) was 5 of 10 and 9 of 10, the survivor count (dose: 200.0 mg/kg/injection, schedule: Q01DX001 (ip)) was 9 of 10 and the T/C (dose: 200.0 mg/kg/injection, schedule: Q08DX002 (ip)) was 144 % of control. The T/C (dose: 256.0 mg/kg/injection, schedule: Q01DX001 (oral)) was 126 % of control, the T/C (dose: 512.0 mg/kg/injection, schedule: Q01DX001 (oral)) was 129 and 133 % of control and the T/C [1] was 135 % of control [9 of 10 alive]. For the same compound, the survivor count [1] was 6 of 10.
